# According to the supplement of paper PMC12819154, “High-throughput peptide-centric local stability assay extends protein–ligand identification to membrane proteins, tissues and bacteria” (Nature Structural & Molecular Biology, 2025):
# Amino acid sequences for entries named in this document (tags omitted). A change or cut given only in a name is not applied to a line headed by its entry.
# UniProt P05455: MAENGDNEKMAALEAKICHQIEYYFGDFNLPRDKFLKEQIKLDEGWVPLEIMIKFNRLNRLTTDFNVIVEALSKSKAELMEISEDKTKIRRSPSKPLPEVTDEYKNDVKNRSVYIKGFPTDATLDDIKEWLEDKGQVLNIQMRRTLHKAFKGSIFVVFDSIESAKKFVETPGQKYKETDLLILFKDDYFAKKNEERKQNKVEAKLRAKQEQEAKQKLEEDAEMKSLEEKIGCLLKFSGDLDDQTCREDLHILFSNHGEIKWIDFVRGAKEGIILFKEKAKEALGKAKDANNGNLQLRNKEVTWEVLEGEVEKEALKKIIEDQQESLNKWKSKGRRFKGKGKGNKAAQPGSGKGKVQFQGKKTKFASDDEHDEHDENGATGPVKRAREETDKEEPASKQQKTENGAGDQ
# UniProt P02654: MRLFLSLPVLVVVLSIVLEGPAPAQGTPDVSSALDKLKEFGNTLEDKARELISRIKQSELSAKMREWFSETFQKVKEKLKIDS
# UniProt P09496: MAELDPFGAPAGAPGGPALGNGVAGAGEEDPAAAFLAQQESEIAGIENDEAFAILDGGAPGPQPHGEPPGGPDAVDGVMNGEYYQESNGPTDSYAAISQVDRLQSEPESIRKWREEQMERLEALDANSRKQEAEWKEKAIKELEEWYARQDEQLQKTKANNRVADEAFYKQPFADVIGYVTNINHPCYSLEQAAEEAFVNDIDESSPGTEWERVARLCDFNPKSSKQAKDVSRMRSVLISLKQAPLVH
# UniProt P10074: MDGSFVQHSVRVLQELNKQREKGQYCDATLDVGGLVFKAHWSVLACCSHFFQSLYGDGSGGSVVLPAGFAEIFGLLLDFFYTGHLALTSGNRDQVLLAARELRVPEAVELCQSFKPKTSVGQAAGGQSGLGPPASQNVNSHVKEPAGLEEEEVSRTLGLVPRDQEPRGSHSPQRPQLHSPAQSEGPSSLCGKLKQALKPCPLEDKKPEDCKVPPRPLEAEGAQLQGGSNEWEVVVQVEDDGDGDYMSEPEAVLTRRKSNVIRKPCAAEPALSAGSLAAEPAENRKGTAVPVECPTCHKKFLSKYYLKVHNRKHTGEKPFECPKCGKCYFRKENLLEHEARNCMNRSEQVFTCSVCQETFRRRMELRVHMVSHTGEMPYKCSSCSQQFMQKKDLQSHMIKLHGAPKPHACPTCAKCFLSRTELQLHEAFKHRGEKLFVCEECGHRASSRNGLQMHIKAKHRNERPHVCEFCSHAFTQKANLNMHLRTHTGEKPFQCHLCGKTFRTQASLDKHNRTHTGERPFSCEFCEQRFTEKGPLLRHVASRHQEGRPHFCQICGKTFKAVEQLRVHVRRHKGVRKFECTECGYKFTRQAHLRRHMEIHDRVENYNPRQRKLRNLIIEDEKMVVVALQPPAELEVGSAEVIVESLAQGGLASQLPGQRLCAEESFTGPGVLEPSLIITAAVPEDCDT
# UniProt P01137, whole entry: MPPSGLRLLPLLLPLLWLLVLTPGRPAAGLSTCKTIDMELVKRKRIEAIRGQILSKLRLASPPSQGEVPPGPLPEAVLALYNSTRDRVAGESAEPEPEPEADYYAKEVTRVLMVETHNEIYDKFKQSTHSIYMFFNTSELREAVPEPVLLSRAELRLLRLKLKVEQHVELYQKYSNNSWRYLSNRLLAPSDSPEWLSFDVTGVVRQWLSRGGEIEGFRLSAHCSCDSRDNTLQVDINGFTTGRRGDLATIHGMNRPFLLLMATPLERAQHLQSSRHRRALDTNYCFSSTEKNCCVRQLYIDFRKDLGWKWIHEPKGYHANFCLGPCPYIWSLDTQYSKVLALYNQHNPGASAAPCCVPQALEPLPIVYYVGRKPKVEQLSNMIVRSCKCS
# UniProt P11172: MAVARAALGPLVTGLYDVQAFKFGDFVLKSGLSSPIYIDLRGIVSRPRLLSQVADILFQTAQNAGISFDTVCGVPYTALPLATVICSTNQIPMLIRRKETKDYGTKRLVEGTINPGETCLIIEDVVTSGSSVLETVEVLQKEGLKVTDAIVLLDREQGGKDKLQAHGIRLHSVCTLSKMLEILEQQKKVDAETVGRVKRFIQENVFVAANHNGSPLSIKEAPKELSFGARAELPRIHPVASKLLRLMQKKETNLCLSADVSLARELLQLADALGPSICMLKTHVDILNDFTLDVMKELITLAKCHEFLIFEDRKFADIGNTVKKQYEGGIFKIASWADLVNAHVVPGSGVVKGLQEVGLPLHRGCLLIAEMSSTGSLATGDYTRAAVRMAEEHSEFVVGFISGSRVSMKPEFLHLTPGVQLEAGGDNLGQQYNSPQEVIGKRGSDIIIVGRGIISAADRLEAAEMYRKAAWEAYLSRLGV
# UniProt P06737: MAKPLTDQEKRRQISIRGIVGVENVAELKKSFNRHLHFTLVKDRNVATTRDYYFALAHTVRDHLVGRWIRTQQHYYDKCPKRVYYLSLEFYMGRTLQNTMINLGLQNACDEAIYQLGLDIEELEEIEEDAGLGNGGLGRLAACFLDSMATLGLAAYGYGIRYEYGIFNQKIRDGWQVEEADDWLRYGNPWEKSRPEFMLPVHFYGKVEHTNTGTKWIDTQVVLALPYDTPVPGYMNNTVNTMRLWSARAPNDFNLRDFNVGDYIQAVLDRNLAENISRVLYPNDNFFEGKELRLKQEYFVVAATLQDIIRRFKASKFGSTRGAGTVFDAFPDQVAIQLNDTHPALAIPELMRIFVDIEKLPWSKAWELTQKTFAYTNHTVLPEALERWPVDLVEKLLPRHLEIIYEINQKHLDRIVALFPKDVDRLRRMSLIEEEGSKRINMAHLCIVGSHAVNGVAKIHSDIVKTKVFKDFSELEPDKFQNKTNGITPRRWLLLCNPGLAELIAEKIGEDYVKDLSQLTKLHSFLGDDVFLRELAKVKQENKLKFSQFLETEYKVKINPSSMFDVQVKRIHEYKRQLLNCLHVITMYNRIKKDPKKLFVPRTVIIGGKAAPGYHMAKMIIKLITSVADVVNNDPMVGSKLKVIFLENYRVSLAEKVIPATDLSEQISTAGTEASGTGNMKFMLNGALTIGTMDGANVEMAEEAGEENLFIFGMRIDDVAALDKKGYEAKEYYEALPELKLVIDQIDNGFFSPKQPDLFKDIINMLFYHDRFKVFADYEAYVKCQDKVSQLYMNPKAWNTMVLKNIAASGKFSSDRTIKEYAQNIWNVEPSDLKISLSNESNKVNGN
# UniProt P08574: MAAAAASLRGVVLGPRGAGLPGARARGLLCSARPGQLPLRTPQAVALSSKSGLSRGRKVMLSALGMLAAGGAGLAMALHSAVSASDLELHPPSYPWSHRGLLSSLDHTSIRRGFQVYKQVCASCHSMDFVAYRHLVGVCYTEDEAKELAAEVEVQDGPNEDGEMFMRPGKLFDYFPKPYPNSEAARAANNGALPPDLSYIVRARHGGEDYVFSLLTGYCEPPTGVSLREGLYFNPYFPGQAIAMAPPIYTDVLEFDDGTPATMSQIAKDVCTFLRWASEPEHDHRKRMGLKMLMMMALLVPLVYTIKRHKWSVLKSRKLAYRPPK
# UniProt P00746, whole entry: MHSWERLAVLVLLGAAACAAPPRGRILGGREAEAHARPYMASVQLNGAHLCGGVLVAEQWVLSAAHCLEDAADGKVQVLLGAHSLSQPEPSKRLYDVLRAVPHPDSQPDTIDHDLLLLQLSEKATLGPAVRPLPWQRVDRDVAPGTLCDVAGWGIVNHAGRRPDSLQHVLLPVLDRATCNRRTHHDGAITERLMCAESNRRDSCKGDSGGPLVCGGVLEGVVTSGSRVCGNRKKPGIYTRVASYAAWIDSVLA
# UniProt P05067, whole entry: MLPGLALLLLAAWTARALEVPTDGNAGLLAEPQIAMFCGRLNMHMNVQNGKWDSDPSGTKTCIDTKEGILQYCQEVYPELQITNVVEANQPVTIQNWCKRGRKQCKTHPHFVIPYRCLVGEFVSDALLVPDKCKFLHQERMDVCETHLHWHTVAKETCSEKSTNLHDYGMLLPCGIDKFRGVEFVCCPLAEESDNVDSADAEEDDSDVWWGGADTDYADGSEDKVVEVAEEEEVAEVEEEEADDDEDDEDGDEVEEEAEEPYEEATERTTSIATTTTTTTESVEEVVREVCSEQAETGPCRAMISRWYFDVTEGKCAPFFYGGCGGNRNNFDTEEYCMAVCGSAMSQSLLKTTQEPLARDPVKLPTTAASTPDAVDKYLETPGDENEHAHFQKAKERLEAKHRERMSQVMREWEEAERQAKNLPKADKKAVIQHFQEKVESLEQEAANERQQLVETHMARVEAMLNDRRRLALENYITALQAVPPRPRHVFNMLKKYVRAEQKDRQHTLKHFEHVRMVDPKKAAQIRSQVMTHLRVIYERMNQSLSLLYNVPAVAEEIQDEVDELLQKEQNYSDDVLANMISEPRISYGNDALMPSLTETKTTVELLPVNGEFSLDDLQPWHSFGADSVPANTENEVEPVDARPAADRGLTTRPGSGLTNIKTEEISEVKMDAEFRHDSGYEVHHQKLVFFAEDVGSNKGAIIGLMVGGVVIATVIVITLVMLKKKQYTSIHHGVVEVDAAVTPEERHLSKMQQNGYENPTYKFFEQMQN
# UniProt P08621, whole entry: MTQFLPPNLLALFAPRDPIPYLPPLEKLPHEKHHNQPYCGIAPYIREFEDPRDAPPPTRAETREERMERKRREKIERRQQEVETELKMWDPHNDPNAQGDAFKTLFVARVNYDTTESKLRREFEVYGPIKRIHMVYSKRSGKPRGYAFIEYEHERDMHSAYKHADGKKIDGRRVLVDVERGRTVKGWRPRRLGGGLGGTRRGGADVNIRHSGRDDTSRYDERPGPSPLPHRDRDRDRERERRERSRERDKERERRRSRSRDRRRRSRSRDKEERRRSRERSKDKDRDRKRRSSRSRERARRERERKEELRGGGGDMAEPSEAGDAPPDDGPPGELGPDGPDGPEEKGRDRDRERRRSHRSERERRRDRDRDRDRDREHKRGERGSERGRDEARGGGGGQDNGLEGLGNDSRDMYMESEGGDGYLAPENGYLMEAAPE
# UniProt P10242: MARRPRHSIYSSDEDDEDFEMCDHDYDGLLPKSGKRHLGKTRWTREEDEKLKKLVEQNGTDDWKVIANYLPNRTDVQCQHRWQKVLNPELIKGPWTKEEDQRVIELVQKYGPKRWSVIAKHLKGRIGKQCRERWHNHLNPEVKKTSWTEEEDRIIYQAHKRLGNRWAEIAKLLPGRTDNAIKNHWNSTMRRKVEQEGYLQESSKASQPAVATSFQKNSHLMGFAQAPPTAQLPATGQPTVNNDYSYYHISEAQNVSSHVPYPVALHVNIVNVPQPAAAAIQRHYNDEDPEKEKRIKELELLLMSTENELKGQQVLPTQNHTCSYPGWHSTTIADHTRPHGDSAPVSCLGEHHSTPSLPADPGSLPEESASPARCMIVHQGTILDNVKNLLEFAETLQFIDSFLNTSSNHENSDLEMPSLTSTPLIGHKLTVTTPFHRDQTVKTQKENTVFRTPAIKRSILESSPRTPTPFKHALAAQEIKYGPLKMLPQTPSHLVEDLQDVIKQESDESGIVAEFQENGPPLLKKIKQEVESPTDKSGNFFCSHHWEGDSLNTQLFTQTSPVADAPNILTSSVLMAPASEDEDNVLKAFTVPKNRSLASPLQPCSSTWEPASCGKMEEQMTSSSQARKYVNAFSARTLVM
# UniProt P08590, whole entry: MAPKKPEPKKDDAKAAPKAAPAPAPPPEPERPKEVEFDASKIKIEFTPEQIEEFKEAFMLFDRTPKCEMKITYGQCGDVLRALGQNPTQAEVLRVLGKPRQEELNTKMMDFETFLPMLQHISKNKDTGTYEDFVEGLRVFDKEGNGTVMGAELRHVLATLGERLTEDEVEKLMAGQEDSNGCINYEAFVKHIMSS
# UniProt P07327: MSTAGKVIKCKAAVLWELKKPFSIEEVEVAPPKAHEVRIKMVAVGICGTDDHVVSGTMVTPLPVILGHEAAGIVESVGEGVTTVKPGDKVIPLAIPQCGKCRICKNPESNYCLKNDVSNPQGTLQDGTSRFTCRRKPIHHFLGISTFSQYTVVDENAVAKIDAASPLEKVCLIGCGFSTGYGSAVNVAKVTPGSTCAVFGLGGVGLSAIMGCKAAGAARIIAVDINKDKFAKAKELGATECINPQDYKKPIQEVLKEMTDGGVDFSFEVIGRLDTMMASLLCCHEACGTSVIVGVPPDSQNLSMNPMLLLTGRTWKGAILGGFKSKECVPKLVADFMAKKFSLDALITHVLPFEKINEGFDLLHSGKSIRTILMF
# UniProt P06280: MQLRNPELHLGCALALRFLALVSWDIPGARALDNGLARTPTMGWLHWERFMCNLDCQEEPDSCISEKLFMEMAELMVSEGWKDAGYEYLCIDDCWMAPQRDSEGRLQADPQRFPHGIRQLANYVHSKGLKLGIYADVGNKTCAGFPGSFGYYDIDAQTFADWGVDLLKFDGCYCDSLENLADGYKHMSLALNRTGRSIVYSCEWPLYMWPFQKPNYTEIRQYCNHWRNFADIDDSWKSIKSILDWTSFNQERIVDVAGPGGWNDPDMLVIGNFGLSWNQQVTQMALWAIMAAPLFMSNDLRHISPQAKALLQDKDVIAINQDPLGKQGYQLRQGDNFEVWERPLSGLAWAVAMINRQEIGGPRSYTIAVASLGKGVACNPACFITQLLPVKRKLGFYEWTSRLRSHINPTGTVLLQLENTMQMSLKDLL
# The list shows a part of the results. Most entries show no effect beyond the scatter of the controls.
# Compound: CN[C@@H]1C[C@H]2O[C@@](C)([C@@H]1OC)n1c3ccccc3c3c4c(c5c6ccccc6n2c5c31)C(=O)NC4 [staurosporine]
# Test: log2 fold change of tryptic peptide abundance, ligand vs vehicle (limited proteolysis) (log2 ratio); higher = more trypsin-susceptible (destabilized)
# Conditions: ligand concentration: 20 uM; sample: K562 cleared lysate; digestion: 4 min, 22 C (HT-PELSA RT4min, Orbitrap Astral)
row,Target,log2 fold change
1,"TIMP1 (peptide sequence: GFQALGDAADIR, peptide start residue: 71) (UniProt P01033)",0.266
2,"SSB (peptide sequence: ETDLLILFKDDYFAKK, peptide start residue: 177) (UniProt P05455)",0.473
3,"VIL1 (peptide sequence: LMEVMNHVLGK, peptide start residue: 222) (UniProt P09327)",0.721
4,"MYH3 (peptide sequence: QLEEENKAK, peptide start residue: 1319) (UniProt P11055)",0.341
5,"NR2C1 (peptide sequence: HYGAVTCEGCK, peptide start residue: 124) (UniProt P13056)",0.432
6,"NR3C1 (peptide sequence: VSASSPSLAVASQSDSK, peptide start residue: 41) (UniProt P04150)",-0.317
7,"APOC1 (peptide sequence: MREWFSETFQK, peptide start residue: 64) (UniProt P02654)",0.409
8,"DMD (peptide sequence: LGLLLHDSIQIPR, peptide start residue: 3234) (UniProt P11532)",0.709
9,"CT45A10 (peptide sequence: SQQEINADIK, peptide start residue: 118) (UniProt P0DMU9)",0.135
10,"G6PD (peptide sequence: WDGVPFILR, peptide start residue: 349) (UniProt P11413)",-0.288
11,"CLTA (peptide sequence: SVLISLKQAPLVH, peptide start residue: 236) (UniProt P09496)",0.951
12,"C8orf88 (peptide sequence: LIGKPLQPARPVR, peptide start residue: 6) (UniProt P0DMB2)",0.104
13,"ZBTB48 (peptide sequence: PHVCEFCSHAFTQK, peptide start residue: 464) (UniProt P10074)",-0.682
14,"TGFB1 (peptide sequence: AQHLQSSR, peptide start residue: 268) (UniProt P01137)",0.289
15,"UMPS (peptide sequence: GLQEVGLPLHR, peptide start residue: 353) (UniProt P11172)",0.34
16,"RPLP1 (peptide sequence: KEESEESDDDMGFGLFD, peptide start residue: 99) (UniProt P05386)",-0.142
17,"SP1 (peptide sequence: WHTGERPFMCTWSYCGKR, peptide start residue: 649) (UniProt P08047)",-0.751
18,"PYGL (peptide sequence: HLHFTLVK, peptide start residue: 35) (UniProt P06737)",0.273
19,"HMGN2 (peptide sequence: EGNNPAENGDAKTDQAQK, peptide start residue: 65) (UniProt P05204)",-0.162
20,"UniProt P0CG47 (peptide sequence: TITLEVEPSDTIENVKAK, peptide start residue: 12)",0.215

row,Target,log2 fold change
1,"HSPB1 (peptide sequence: AQLGGPEAAKSDETAAK, peptide start residue: 189) (UniProt P04792)",-0.113
2,"CYC1 (peptide sequence: LFDYFPKPYPNSEAAR, peptide start residue: 171) (UniProt P08574)",-0.216
3,"UniProt P00746 (peptide sequence: ATLGPAVRPLPWQR, peptide start residue: 124)",0.339
4,"ADH5 (peptide sequence: AFELMHSGK, peptide start residue: 358) (UniProt P11766)",0.309
5,"APP (peptide sequence: EWEEAER, peptide start residue: 412) (UniProt P05067)",-0.172
6,"ACADM (peptide sequence: MWITNGGK, peptide start residue: 190) (UniProt P11310)",0.202
7,"UniProt P0DPI2 (peptide sequence: GGAEVQIFAPDVPQMHVIDHTK, peptide start residue: 73)",-0.329
8,"SNRNP70 (peptide sequence: PGPSPLPHR, peptide start residue: 223) (UniProt P08621)",-0.523
9,"MYB (peptide sequence: CMIVHQGTILDNVK, peptide start residue: 374) (UniProt P10242)",0.218
10,"MYL3 (peptide sequence: ITYGQCGDVLR, peptide start residue: 73) (UniProt P08590)",-0.0177
11,"TFRC (peptide sequence: QVDGDNSHVEMK, peptide start residue: 28) (UniProt P02786)",-0.0938
12,"PCCB (peptide sequence: ERISLLLDPGSFVESDMFVEHR, peptide start residue: 68) (UniProt P05166)",-0.679
13,"APRT (peptide sequence: GKLPGPTLWASYSLEYGK, peptide start residue: 90) (UniProt P07741)",0.482
14,"AK1 (peptide sequence: LSEIMEK, peptide start residue: 57) (UniProt P00568)",-0.452
15,"ADH1A (peptide sequence: CKAAVLWELK, peptide start residue: 10) (UniProt P07327)",0.166
16,"GLA (peptide sequence: ALLQDKDVIAINQDPLGK, peptide start residue: 309) (UniProt P06280)",0.257
17,"ISG15 (peptide sequence: LTQTVAHLK, peptide start residue: 100) (UniProt P05161)",0.346
18,"ASL (peptide sequence: NPDSLELIR, peptide start residue: 289) (UniProt P04424)",0.222
19,"HARS (peptide sequence: LKAQLGPDESK, peptide start residue: 41) (UniProt P12081)",0.189
